Literature values as cited in patent US8969412B2, “Use for a composition comprising chloroprocaine HCL, a new composition comprising chloroprocaine HCL and a method for its manufacture” (Sintetica S.A., priority 2005, dated 2015).
For at least one compound, name, drawing or mass did not settle the structure.

Conditions: in vivo

## CCN(CC)CCOC(=O)c1ccc(N)cc1Cl [Chloroprocaine, 2-(diethylaminoethyl)-4-amino-chlorobenzoate]
  duration: 30 to 60 min
  onset time: 15 to 20 min
